US11371077B2, “High throughput cell-based screening for aptamers” (MeiraGTx UK II Limited, priority 2016, dated 2022)

Tested on: add-G6 riboswitch
Assay: cells
Type: cell-based
Settings: Homo sapiens, HEK293, read-out: Fold Induction of luciferase activity
Text: A truncated human beta-globin intron sequence was synthesized and inserted in the coding sequence of a firefly luciferase gene. A mutant human DHFR exon 2 was synthesized and inserted in the middle of this truncated beta-globin intron sequence using Golden gate cloning strategy. Aptamers including xpt-G/A^1, ydhl-G/A^2, yxj^3, add^4, gdg6-G/A^5 (citations for the aptamers are incorporated herein by reference) were synthesized as oligonucleotides (“oligos”) with 4 nucleotide overhang at the 5′ end that are complementary to two different BsaI sites individually (IDT), annealed and ligated to BsaI-digested mDHFR-Luci-acceptor vector.
3.5×10^4 HEK 293 cells were plated in a 96-well flat bottom plate the day before transfection. Plasmid DNA (500 ng) was added to a tube or a 96-well U-bottom plate. […] Then, 50 μL of this diluted transfection reagent was added to the DNA, mixed, and incubated at RT for 20 min. Finally, 7 μL of this solution was added to a well of cells in the 96-well plate.
24 hours after media change, plates were removed from the incubator, and equilibrated to RT for several minutes on a lab bench, then aspirated. Glo-lysis buffer (Promega, 100 μL, RT) was added, and the plates maintained at RT for at least 5 minutes. […] Following a 5 min incubation at RT, luminescence was measured using a Tecan machine with 500 mSec read time. […]

SMILES: Cc1cc(/C=C/c2ccc3cc(N(C)C)ccc3[n+]2C)c(C)n1-c1ccccc1 [Pyrvinium pamoate]
- fold induction at 100 µM: 15.8
